This is an account of results in paper PMC7819943, “Rice protein-binding microarrays: a tool to detect cis-acting elements near promoter regions in rice”.

Some of the results follow.

The target of the assay is T1, OsSMF1 (Oryza sativa, UniProt Q6ZLB0 1-436).
T1 sequence: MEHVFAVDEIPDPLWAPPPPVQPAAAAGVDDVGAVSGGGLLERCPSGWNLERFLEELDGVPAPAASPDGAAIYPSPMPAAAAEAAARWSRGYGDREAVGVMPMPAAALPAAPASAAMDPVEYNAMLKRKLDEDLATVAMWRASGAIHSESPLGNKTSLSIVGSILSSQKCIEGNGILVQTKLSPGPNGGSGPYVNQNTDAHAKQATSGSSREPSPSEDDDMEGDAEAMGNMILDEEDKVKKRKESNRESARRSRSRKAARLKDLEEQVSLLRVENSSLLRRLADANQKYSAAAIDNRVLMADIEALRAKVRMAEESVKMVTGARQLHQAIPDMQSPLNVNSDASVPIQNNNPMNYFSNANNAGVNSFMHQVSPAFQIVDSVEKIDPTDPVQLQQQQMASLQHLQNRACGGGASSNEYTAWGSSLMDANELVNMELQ
The assay can be described thus: protein-binding microarray (RPBM); PBS, 2% BSA, 51.3 ng/ul salmon testes DNA, 50 uM zinc acetate, 200 nM TF, 25 C, 1 h; high values mean tight binding. Conditions: protein: recombinant; tags: N-terminal polyhistidine and DsRed monomer fusion (pET32a); chain copies: 2; label: CyDye5-dUTP incorporated in the synthesized complementary strand; 3' TTTTT single-stranded linker to array surface; dsDNA, one strand shown. A digest of the protocol: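 A custom Agilent array was converted to double-stranded form by primer extension with Cy5-dUTP and blocked with 2% BSA. Protein at 200 nM in PBS with 2% BSA, salmon testes DNA and 50 µM zinc acetate was applied for 1 h at 25 °C, followed by washing. The proteins were polyhistidine–DsRed N-terminal fusions of transcription factors, expressed in E. coli BL21-CodonPlus and Ni–NTA-purified. The binding signal is per-feature fluorescence intensity (arbitrary units) from an Axon 4000B scanner.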
Take “CACCTCAGCCGTGGTACAGAGAATCCTCACCAAGCCACCACGGAGTCACCTAGTGCAG”: the binding signal is 3320 fluorescence intensity (a.u.).

For “TGCGCGCGCCGGCCTACGTGTGTAGGCTCCGTCAGCAGCGCGGAGTCACCTAGTGCAG”, the binding signal was 6850 fluorescence intensity (a.u.).

For the sequence “GCGTGCCGTTTCCCTGCACAAGCCCAACCCCACACATATCCGGAGTCACCTAGTGCAG”, the binding signal is 11600 fluorescence intensity (a.u.).

For the sequence “AACTAGTGTAATAGTCACCGTCAAGATTGTCAGGTTGGCGCGGAGTCACCTAGTGCAG”, the binding signal is 3500 fluorescence intensity (a.u.).

Turning to “ATTTTGGTCAAATTTAAACTAATCTAAGTTTGACTAATTTCGGAGTCACCTAGTGCAG”, the binding signal was 8280 fluorescence intensity (a.u.).

With “GCACGCGGCGTCTCCACGTGTCCAGCCCGCGGCTGCTGCGCGGAGTCACCTAGTGCAG”, the binding signal was 7950 fluorescence intensity (a.u.).

As to “GCCGTGGGCCCCACATGTCATTGGAACAGCGTGTGTCTCCCGGAGTCACCTAGTGCAG”, the binding signal was 4580 fluorescence intensity (a.u.).

As to “CATGATATATCATCAATTTGGCTTACTTGGCATCTTATTTCGGAGTCACCTAGTGCAG”, the binding signal was 3670 fluorescence intensity (a.u.).

Turning to “TATGGACAGTGCCACCTCCTTCTTCCCGGTTGCTTCAGAGCGGAGTCACCTAGTGCAG”, the binding signal was 4730 fluorescence intensity (a.u.).

Take “GATGGGTCAGATGATGACGACGACGATGATGAAGATGACGCGGAGTCACCTAGTGCAG”: the binding signal is 4070 fluorescence intensity (a.u.).

As for “CTACATCAGCTATATCTATTGTTGCTCTTACACTAAATTACGGAGTCACCTAGTGCAG”, the binding signal is 23700 fluorescence intensity (a.u.).

As to “CTTCTTCCATCCAACCCATTGCATGGTGTATTTTCCATATCGGAGTCACCTAGTGCAG”, the binding signal was 3410 fluorescence intensity (a.u.).

Consider “CCAAAGTTTGTATACACGTATGCAAAGTTTGTATACACGTCGGAGTCACCTAGTGCAG”, for which the binding signal was 8060 fluorescence intensity (a.u.).

Consider “TCCCTTTCATGTCAGCATCGGATTGCGTCCGAACAAAGTCCGGAGTCACCTAGTGCAG”, for which the binding signal was 4270 fluorescence intensity (a.u.).

On to “ACATGGCCACGTGGGAGTTTCACCTAGCTAGTCGTGTATACGGAGTCACCTAGTGCAG”, for which the binding signal was 7090 fluorescence intensity (a.u.).

With “GTCAAGTTGCCATGTCATCAAATACTGCCCATAATACTGCCGGAGTCACCTAGTGCAG”, the binding signal was 19900 fluorescence intensity (a.u.).

In the case of “TGCATTGCACACACCCATCTTGATAAGTACGTCATGCTTACGGAGTCACCTAGTGCAG”, the binding signal is 4000 fluorescence intensity (a.u.).

For the sequence “AGCACCGCAGATAACATGGTCTGACGCTATCTCAGATTTCCGGAGTCACCTAGTGCAG”, the binding signal is 4150 fluorescence intensity (a.u.).

Take “GGCGGAGAGGGTATGGACAACAGCGCCGAGGTGGCGTGGCCGGAGTCACCTAGTGCAG”: the binding signal was 5480 fluorescence intensity (a.u.).

As to “TGGAACTAAATCTTAGTCAGAATGACACGAAAGGATCGAACGGAGTCACCTAGTGCAG”, the binding signal is 3240 fluorescence intensity (a.u.).

On to “GCCGTGACGTCCCCGCTGACGCCTCTCTCCGTTGGACGCGCGGAGTCACCTAGTGCAG”, for which the binding signal was 7740 fluorescence intensity (a.u.).

Turning to “CCCGCCACGTGTCCGACCCGCACCCCGCCCGGTCGGTCCCCGGAGTCACCTAGTGCAG”, the binding signal is 11000 fluorescence intensity (a.u.).

Take “GAGAGGGGATGGGGTTGAGTGGTGGGGCCTATGATTGGCACGGAGTCACCTAGTGCAG”: the binding signal was 4090 fluorescence intensity (a.u.).

Turning to “ATCAGTGACGGTAAGGATAGTATCATTGGGTGTGTTCGGTCGGAGTCACCTAGTGCAG”, the binding signal is 3150 fluorescence intensity (a.u.).

For the sequence “ACCGGTGTTCAGAGCCTAGTTCAGAACAGGAATATCACCACGGAGTCACCTAGTGCAG”, the binding signal was 4240 fluorescence intensity (a.u.).

With “CATTGCCCCAAAAGTACAGAGAACACATAGGGCCTATTTACGGAGTCACCTAGTGCAG”, the binding signal was 7330 fluorescence intensity (a.u.).

In the case of “TTAACGTTGTAAGCCCATGAGGAGAGTCGAATCCAGATCACGGAGTCACCTAGTGCAG”, the binding signal is 3270 fluorescence intensity (a.u.).

Turning to “TAATTCCAACGACACACGCTTGGTCAGAGCTCAATATGCCCGGAGTCACCTAGTGCAG”, the binding signal is 4610 fluorescence intensity (a.u.).

Turning to “CGAGTGGTGGGGTGGGGAGTCGCGTGCCCGCGCCGAGACCCGGAGTCACCTAGTGCAG”, the binding signal was 3890 fluorescence intensity (a.u.).

Turning to “AGGGTTTGGCACGGGCGGGGCGGAGGCGCGCTGCACACATCGGAGTCACCTAGTGCAG”, the binding signal is 3820 fluorescence intensity (a.u.).

Regarding “AGGTGCAGATGCTACTACTGATCTGGAACAGTGATCTCCACGGAGTCACCTAGTGCAG”, the binding signal was 3180 fluorescence intensity (a.u.).

Regarding “GAGAGATTCCTGGCTTCCTGCCTCACGCGCACGCACACCACGGAGTCACCTAGTGCAG”, the binding signal was 16400 fluorescence intensity (a.u.).

On to “ACACAGCCACGCCCGTACGCAGCTACGTACGCACGCATCACGGAGTCACCTAGTGCAG”, for which the binding signal is 5670 fluorescence intensity (a.u.).

Turning to “GATACTATGTTCAACCGGTGACTAGCCTGGAGCTTCTTCTCGGAGTCACCTAGTGCAG”, the binding signal was 4300 fluorescence intensity (a.u.).

Consider “CCAGGGCTGCCCCAAATCTGACTCGGTTTTGGGACTGGATCGGAGTCACCTAGTGCAG”, for which the binding signal was 4570 fluorescence intensity (a.u.).

For the sequence “GAGAGAGAGACAGAGACAGAGACAGAGCAAGAACACCTCCCGGAGTCACCTAGTGCAG”, the binding signal is 23400 fluorescence intensity (a.u.).

Regarding “AATTAATCCATTATTAACAAATGTTTACTGTAGCATCACACGGAGTCACCTAGTGCAG”, the binding signal is 51600 fluorescence intensity (a.u.).

Turning to “CGCATTGGACAACCTTGACGTGGTGGCCGTCCTCCCGGAGCGGAGTCACCTAGTGCAG”, the binding signal was 6100 fluorescence intensity (a.u.).

Take “TGTAGTAATCGATATGTGGGACCCAGTGGGACCCGCATCTCGGAGTCACCTAGTGCAG”: the binding signal is 27500 fluorescence intensity (a.u.).

As to “TCGATCTCGATCGCCATGTCATTGCTCATCACAAGCATCTCGGAGTCACCTAGTGCAG”, the binding signal is 5920 fluorescence intensity (a.u.).

Turning to “TCGGATCGAATTGCCACGTAAGCGCCACGTCGATGCCACACGGAGTCACCTAGTGCAG”, the binding signal is 33000 fluorescence intensity (a.u.).

Regarding “CCGCAGTCGTAAGCCACGTCCTTTCACTAACATGTGAACCCGGAGTCACCTAGTGCAG”, the binding signal was 9040 fluorescence intensity (a.u.).
